Measurements as given in PubChem BioAssay AID330 (DTP/NCI, 2004).
The list is a part of this screen's results and no random one: it is rich in T/C values a quarter to a half above the control, in often repeated tests (any T/C) and in doses without a T/C. Further doses and runs are listed elsewhere. T/C gives the treated animals as a percentage of the vehicle group. Some doses have a count of surviving animals in place of a T/C: the source holds a T/C of zero for them, seemingly a mark for toxic or unscored doses. Some survivor counts are full or nearly so, which does not show that the dose was tolerated: the source hardly ever lists a survival T/C far under the control, and the zero likely stands for such cases as well. Counts of survivors are from the toxicity check (mostly the fifth day) where no day follows; animals may have died later. Schedules are NCI's codes, read here as Q, the interval in days (D) or hours (H), X, the number of doses. Some entries were tested several times; the values are given in rising order. Some structures stand for samples that the source files as different forms (salt, stereo form or complex); doses refer to the form tested. Where survival is the endpoint, this PubChem deposit counts one and a half times the control or more as active, and values a quarter to a half above the control carry no call in these data; other NCI protocols may use other cut-offs. Some T/C values carry the count of animals alive at the toxicity check (mostly the fifth day); without a count, all were alive then.

System: P388 leukemia ip, CD2F1 mice, survival T/C
Assay: NCI In Vivo Anticancer Drug Screen. Data for tumor model P388 Leukemia (intraperitoneal) in CD2F1 (CDF1) mice
Details: T/C endpoint: median survival time, higher T/C = longer survival
[1] = dose: 200.0 mg/kg/injection, schedule: Q01DX005 (ip), vehicle: saline with Tween-80
[2] = dose: 50.0 mg/kg/injection, schedule: Q01DX009 (ip), vehicle: saline
[3] = dose: 100.0 mg/kg/injection, schedule: Q01DX009 (ip), vehicle: saline
[4] = dose: 200.0 mg/kg/injection, schedule: Q01DX009 (ip), vehicle: saline
[5] = dose: 240.0 mg/kg/injection, schedule: Q01DX005 (ip), vehicle: saline with Tween-80
[6] = dose: 200.0 mg/kg/injection, schedule: Q01DX005 (ip), vehicle: saline
[7] = dose: 100.0 mg/kg/injection, schedule: Q01DX009 (ip), vehicle: saline with Tween-80
[8] = dose: 200.0 mg/kg/injection, schedule: Q01DX005 (ip), vehicle: Klucel (hydroxypropylcellulose) (HPC)
[9] = dose: 240.0 mg/kg/injection, schedule: Q01DX005 (ip), vehicle: Klucel (hydroxypropylcellulose) (HPC)
[10] = dose: 12.5 mg/kg/injection, schedule: Q01DX009 (ip), vehicle: saline with Tween-80
[11] = dose: 50.0 mg/kg/injection, schedule: Q01DX009 (ip), vehicle: saline with Tween-80

C1CN1c1nc(N2CC2)nc(N2CC2)n1
T/C (dose: 0.1 mg/kg/injection, schedule: Q01DX009 (ip), vehicle: saline): 130 % of control | T/C (dose: 0.12 mg/kg/injection, schedule: Q01DX009 (ip), vehicle: saline): 130 % of control | T/C (dose: 0.25 mg/kg/injection, schedule: Q01DX009 (ip), vehicle: saline): 145 % of control | survivor count (dose: 1.0 mg/kg/injection, schedule: Q01DX009 (ip), vehicle: saline): 6 of 6 | survivor count (dose: 2.0 mg/kg/injection, schedule: Q01DX009 (ip), vehicle: saline): 6 of 6

COc1cc(C2c3cc4c(cc3CCN2C)OCO4)cc(OC)c1OC (configuration not stated)
survivor count [1]: 4 of 5

Cc1ccc2nc(-c3ccc4nc(-c5ccc(N=Nc6ccc(-c7nc8ccc(-c9nc%10ccc(C)c(S(=O)(=O)O)c%10s9)cc8s7)cc6)cc5)sc4c3)sc2c1S(=O)(=O)O
survivor count (dose: 400.0 mg/kg/injection, schedule: Q01DX009 (ip), vehicle: saline): 0 of 6

Cc1ccnc(NN=O)c1
T/C (dose: 6.25 mg/kg/injection, schedule: Q01DX009 (ip), vehicle: water): 134 % of control | T/C (dose: 12.5 mg/kg/injection, schedule: Q01DX009 (ip), vehicle: water): 137 % of control | survivor count (dose: 25.0 mg/kg/injection, schedule: Q01DX009 (ip), vehicle: water): 5 of 6 and 5 of 5

O=[N+]([O-])c1ccccc1-c1ccccc1N=Cc1ccccc1
survivor count [2]: 6 of 6 | survivor count [3]: 5 of 6 | survivor count [4]: 6 of 6

CN(C)CCC(=O)c1ccc(Cl)cc1
survivor count [4]: 1 of 6

Oc1ccc2ccccc2c1C=NCCS
survivor count [5]: 6 of 6

COc1cc(O)c2c(c1)C(=O)C1=C(C2=O)[C@@H](C)OC(C)C1 (some centres not stated)
survivor count (dose: 120.0 mg/kg/injection, schedule: Q01DX005 (ip), vehicle: saline with Tween-80): 6 of 6 | survivor count [5]: 6 of 6

COc1cc(NC(C)CCCNC(C)C)c2ncccc2c1 (configuration not stated)
survivor count (dose: 25.0 mg/kg/injection, schedule: Q01DX005 (ip), vehicle: saline with Tween-80): 1 of 5 | survivor count (dose: 50.0 mg/kg/injection, schedule: Q01DX005 (ip), vehicle: saline with Tween-80): 0 of 5 | survivor count (dose: 100.0 mg/kg/injection, schedule: Q01DX005 (ip), vehicle: saline with Tween-80): 0 of 5 | survivor count [1]: 0 of 5

COC(=O)c1ccc(N=NN(C)C)cc1
survivor count (dose: 100.0 mg/kg/injection, schedule: Q01DX009 (ip), vehicle: suspension in saline): 6 of 6 | T/C [4]: 141 % of control [5 of 6 alive]

COc1cccc(C(=O)CC(c2ccccc2)C(C)(C)[N+](=O)[O-])c1 (configuration not stated)
survivor count [1]: 2 of 5

CCOC(=O)Nc1nc2ccccc2n1CN1CCN(C)CC1
survivor count (dose: 400.0 mg/kg/injection, schedule: Q01DX005 (ip), vehicle: Klucel (hydroxypropylcellulose) (HPC)): 0 of 6

COc1cc(C(=O)C(CN(C)C)CN(C)C)cc(OC)c1OC
survivor count (dose: 100.0 mg/kg/injection, schedule: Q01DX005 (ip), vehicle: saline): 0 of 5 | survivor count [6]: 0 of 5

CC[C@@H]1C[C@H]2CN(CCc3c([nH]c4ccccc34)[C@@](C(=O)OC)(c3cc4c(cc3OC)N(C)[C@H]3[C@@](O)(C(=O)OC)[C@H](OC(C)=O)[C@]5(CC)CCCN6CC[C@]43[C@@H]65)C2)C1
T/C (dose: 0.5 mg/kg/injection, schedule: Q01DX009 (ip), vehicle: saline with Tween-80): 129 % of control | T/C (dose: 1.0 mg/kg/injection, schedule: Q01DX009 (ip), vehicle: saline with Tween-80): 138 % of control | T/C (dose: 1.0 mg/kg/injection, schedule: Q01DX009 (ip), vehicle: water): 125 and 135 % of control | T/C (dose: 2.0 mg/kg/injection, schedule: Q01DX009 (ip), vehicle: water): 133 and 141 % of control | T/C (dose: 4.0 mg/kg/injection, schedule: Q01DX009 (ip), vehicle: water): 132 % of control

CCOC(=O)Nc1cc2c(c(N)n1)N=C(c1ccc(Cl)c(Cl)c1)CN2
T/C (dose: 7.5 mg/kg/injection, schedule: Q01DX005 (ip), vehicle: saline with Tween-80): 131 % of control | T/C (dose: 10.0 mg/kg/injection, schedule: Q01DX005 (ip), vehicle: saline with Tween-80): 140 % of control | survivor count (dose: 15.0 mg/kg/injection, schedule: Q01DX005 (ip), vehicle: saline with Tween-80): 5 of 5 | survivor count (dose: 20.0 mg/kg/injection, schedule: Q01DX005 (ip), vehicle: saline with Tween-80): 5 of 5

CCN(CC)CCSS(=O)(=O)CCN(CC)CC
survivor count [6]: 0 of 5

NC(N)=NC(N)=Nc1ccc(Cl)c(Cl)c1
survivor count [7]: 3 of 6 | survivor count (dose: 200.0 mg/kg/injection, schedule: Q04DX003 (ip), vehicle: saline): 4 of 6 | survivor count (dose: 400.0 mg/kg/injection, schedule: Q04DX003 (ip), vehicle: saline): 4 of 6

CCc1nc(N)nc(N)c1-c1ccc(NCCCN)c(N)c1
survivor count (dose: 100.0 mg/kg/injection, schedule: Q01DX005 (ip), vehicle: Klucel (hydroxypropylcellulose) (HPC)): 2 of 6 | survivor count [8]: 0 of 6

CN1C2CCC1CC(OC(=O)CBr)C2 (configuration not stated)
survivor count [3]: 4 of 6 | survivor count [4]: 0 of 6

CCOC(=O)/C=C1\SC(C)(C)C1NC(=O)OCc1ccccc1 (configuration not stated)
survivor count (dose: 120.0 mg/kg/injection, schedule: Q01DX005 (ip), vehicle: Klucel (hydroxypropylcellulose) (HPC)): 5 of 6 | survivor count [9]: 5 of 6

CNC(=O)OCc1c(COC(=O)NC)c(-c2ccc(OC)cc2)n(C)c1C
T/C (dose: 6.25 mg/kg/injection, schedule: Q01DX009 (ip), vehicle: distilled water + Tween-80): 135 % of control | T/C (dose: 12.5 mg/kg/injection, schedule: Q01DX009 (ip), vehicle: distilled water + Tween-80): 135 and 138 % of control | T/C (dose: 25.0 mg/kg/injection, schedule: Q01DX009 (ip), vehicle: distilled water + Tween-80): 141 and 145 % of control | survivor count (dose: 100.0 mg/kg/injection, schedule: Q01DX009 (ip), vehicle: distilled water + Tween-80): 4 of 6 and 5 of 6 | survivor count (dose: 200.0 mg/kg/injection, schedule: Q01DX009 (ip), vehicle: distilled water + Tween-80): 3 of 6

CCCCOP(=O)(O)OCCCC.[U]
survivor count [10]: 6 of 6 | survivor count (dose: 25.0 mg/kg/injection, schedule: Q01DX009 (ip), vehicle: saline with Tween-80): 6 of 6 | survivor count [11]: 6 of 6 | survivor count [7]: 5 of 6 | survivor count (dose: 200.0 mg/kg/injection, schedule: Q01DX009 (ip), vehicle: saline with Tween-80): 5 of 6

CCOC(=O)/N=[N+](\[O-])c1cccc(Cl)c1
survivor count (dose: 400.0 mg/kg/injection, schedule: Q01DX001 (ip), vehicle: saline with Tween-80): 0 of 6

O/N=C/c1c(Cl)nc2sccn12
survivor count (dose: 400.0 mg/kg/injection, schedule: Q01DX001 (ip), vehicle: Klucel (hydroxypropylcellulose) (HPC)): 1 of 6

CC1=C(C)C(N2CCOCC2)CS(=O)(=O)O1 (configuration not stated)
survivor count [8]: 0 of 6

CC1(C)N=C(N)N=C(N)N1c1ccc(OCCCCNC(=O)c2ccc(S(=O)(=O)F)cc2)c(Cl)c1
T/C [10]: 128 % of control | T/C (dose: 12.5 mg/kg/injection, schedule: Q01DX009 (ip), vehicle: saline): 149 % of control | T/C [11]: 146 % of control | survivor count [7]: 6 of 6 | T/C [3]: 149 % of control [5 of 6 alive] | survivor count [4]: 0 of 6

CN(C)CCOCN1COCC1(C)C
T/C [2]: 137 % of control | T/C [3]: 129 % of control [4 of 6 alive] | T/C (dose: 150.0 mg/kg/injection, schedule: Q01DX009 (ip), vehicle: saline): 132 % of control

Cc1nc2c([N+](=O)[O-])cc(Cl)cc2[nH]1
survivor count [9]: 4 of 6

CCCCCCCCCCCCCCCCS(=O)(=O)c1ccc(NN)cc1
survivor count (dose: 50.0 mg/kg/injection, schedule: Q01DX009 (ip), vehicle: Klucel (hydroxypropylcellulose) (HPC)): 6 of 6

CC1(C)CC(N=[N+]=[N-])CC(C)(C)N1O
survivor count (dose: 200.0 mg/kg/injection, schedule: Q04DX003 (ip), vehicle: Klucel (hydroxypropylcellulose) (HPC)): 5 of 6 | survivor count (dose: 400.0 mg/kg/injection, schedule: Q04DX003 (ip), vehicle: Klucel (hydroxypropylcellulose) (HPC)): 0 of 6
